Assay results reported in PubChem BioAssay AID504834 (National Center for Advancing Translational Sciences (NCATS), 2011).
Out of some 320,000 compounds screened, about 22,000 (6.9%) were called active. Inconclusive means that the source gave no clear call. Such entries were picked first, then a sample of the others. The call rests on the fitted dose curve; in most records, active means well fitted inhibition curve with a large enough effect; inconclusive means small, poorly fitted or top-dose-only effect, or another doubt; inactive means no such curve, though single readings can be large or run the other way. A potency beside an inconclusive call is a rough fit, not a confirmed value.

Assay: Primary qHTS for delayed death inhibitors of the malarial parasite plastid, 96 hour incubation
Details: P. falciparum luciferase reporter growth; series mostly up to 28.7 µM
Method in brief: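 P. falciparum expressing integrated firefly luciferase, in erythrocytes at 2% hematocrit, 0.05% parasitemia, incubated with compounds 96 h at 37 C, 5% CO2. Growth inhibition read as loss of luminescence; two-generation exposure targets delayed-death apicoplast inhibitors.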
Potency means the concentration at half of the fitted maximal effect.

SMILES	Potency
O=C(NC1CC1)C1=C[C@@H](c2ccccc2)C[C@@H](OCc2ccc(CO)cc2)O1	inconclusive: 13.1 µM [inhibitor, single point]
O=C(N/N=C/c1ccccc1Br)c1cccc(S(=O)(=O)N2CCOCC2)c1	inconclusive: 8.28 µM [inhibitor, partial curve, poor fit]
O=C(Cn1nc(-c2ccc3c(c2)OCCO3)ccc1=O)Nc1cccc(NC(=O)c2ccccn2)c1	inactive
NC(=O)COC(=O)c1cccc(S(=O)(=O)N2CCCc3ccccc32)c1	inconclusive: 3.29 µM [inhibitor, single point]
O=[N+]([O-])c1ccc(C=Nc2ccc(Cl)cc2Cl)s1	inactive
COc1ccc(C)cc1S(=O)(=O)NCC(c1ccc2c(c1)OCO2)N1CCOCC1 (stereo not given)	inactive
COC(=O)c1sc(NC(=O)/C=C/c2ccc(C)o2)nc1C	inactive
CC(C)(C)NCC(O)(c1ccc(Cl)cc1)c1ccc(Cl)cc1	inconclusive: 11.7 µM [inhibitor, single point]
COC(=O)c1cccn(CC(=O)c2ccc(Cl)cc2)c1=O	inactive
O=C(Nc1ccccc1O)c1ccc(NC(=O)C2CC2)cc1	inactive
O=C(CCNC(=O)c1ccc([N+](=O)[O-])cc1)NCCc1ccccc1	inactive
COc1cc(F)ccc1S(=O)(=O)N1CCN(Cc2ccccc2)CC1	inconclusive: 16.5 µM [inhibitor, single point]
COc1ccc(C2C(C#N)=C(N)N(c3cccnc3)C3=C2C(=O)CC(C)(C)C3)cc1OC (stereo not given)	inconclusive: 13.1 µM [inhibitor, single point]
O=C(C[n+]1cccc(/C=N/O)c1)N1CCCCCC1	inconclusive: 9.28 µM [inhibitor, single point]
c1ccc(-c2nc3nonc3c3nc4ccccc4n23)cc1	active: 13.1 µM
COc1ccc(NC2CCCN(C(=O)CCN3CCCC3=O)C2)cc1 (stereo not given)	inconclusive: 2.62 µM [inhibitor, partial curve, poor fit]
O=C(NC(CO)C(O)c1ccc([N+](=O)[O-])cc1)C(Cl)Cl (stereo not given)	inconclusive: 18.5 µM [inhibitor, single point]
O=C(CCn1c(=O)sc2ccccc21)Nc1cccnc1	inconclusive: 10.4 µM [inhibitor, single point]
O=C(N/N=C/c1ccccc1Br)c1ccc(CSc2cccc3cccnc23)cc1	inconclusive: 14.7 µM [inhibitor, single point]
CCCN(CC1CC1)c1nc(N)c2c(N)nc(OC)cc2c1C#N	inconclusive: 8.28 µM [inhibitor, partial curve, poor fit]
Cc1sc2ncnc(OCC(=O)c3ccc(S(=O)(=O)N4CCCC4)cc3)c2c1C	inconclusive: 13.1 µM [inhibitor, single point]
CC(CCc1ccc(O)cc1)NCCC(c1ccccc1)c1ccccc1 (stereo not given)	inconclusive: 13.1 µM [inhibitor, partial curve, poor fit]
CCOC(=O)N1CCC(NC(=O)C2CCN(C(=O)N3CC(C)Oc4ccccc43)CC2)CC1 (stereo not given)	inconclusive: 9.28 µM [inhibitor, single point]
Cc1cn(C2CCC(CO)O2)c(=O)[nH]c1=O (stereo not given)	inconclusive: 10.4 µM [inhibitor, single point]

SMILES	Potency
O=C(COC(=O)Cc1n[nH]c(=O)c2ccccc12)NNC(=O)c1ccc(Cl)cc1	inactive
COc1ccc(NC(=S)NC23CN4CN(CN(C4)C2)C3)cc1	inconclusive: 13.1 µM [inhibitor, single point]
CC(=O)N1N=C(c2cccc(NS(=O)(=O)c3ccc(C)cc3)c2)CC1c1ccco1 (stereo not given)	inconclusive: 0.0657 µM [inhibitor, full curve, poor fit]
Cn1c(=O)n(C)c2cc(NC(=O)c3ccc(F)cc3)c(Br)cc21	active: 2.94 µM
O=C1/C(=C/c2ccc(C(=O)O)cc2)CCC/C1=C\c1ccc(C(=O)O)cc1	active: 1.47 µM
CC(=O)Nc1ccccc1C(F)(F)F	inactive
COc1ccccc1N1CCN(S(=O)(=O)c2ccc3c(c2)NC(=O)C(C)S3)CC1 (stereo not given)	inconclusive: 18.5 µM [inhibitor, single point]
Cc1cc(OCC(=O)N(C)C2CCCCC2)ccc1Cl	inconclusive: 18.5 µM [inhibitor, single point]
CCC(=O)N1CCN(c2ccc(Cl)cc2NC(=O)c2ccc(N3CCCC3)c([N+](=O)[O-])c2)CC1	active: 1.85 µM
COc1ccccc1CN1CC(C(=O)NCc2cccc(C)n2)CCC1=O (stereo not given)	inactive
COc1ccccc1NC(=O)CN(c1ccc(C23CC4CC(CC(C4)C2)C3)cc1)S(C)(=O)=O	inconclusive: 5.22 µM [inhibitor, partial curve, poor fit]
Cc1ccc(-c2csc(NC(=O)c3cccc([N+](=O)[O-])c3C(=O)O)n2)cc1	inactive
CCn1nc([N+](=O)[O-])c2c(-c3nc4ccccc4o3)c(N)n(CCCOC)c2c1=O	inactive
O=C(Cc1coc2ccc3ccccc3c12)NC1CCCc2ccccc21 (stereo not given)	inconclusive: 18.5 µM [inhibitor, single point]
COC(=O)c1ccccc1NC(=O)C(C)c1ccc([N+](=O)[O-])cc1 (stereo not given)	inconclusive: 2.62 µM [inhibitor, single point]
O=[N+]([O-])c1ccc(-c2nc(Nc3ccc(O)cc3)c3ccccc3n2)cc1	inconclusive: 8.28 µM [inhibitor, partial curve, poor fit]
CCn1cc(CNC(=O)C2CCC(=O)N(Cc3ccc(Cl)cc3)C2)cn1 (stereo not given)	inconclusive: 9.28 µM [inhibitor, single point]
CC1CN(C(=O)CCC(=O)NCc2ccccn2)c2ccccc2O1 (stereo not given)	inconclusive: 0.0415 µM [inhibitor, full curve, poor fit]
Cc1cccc(C(=O)Nc2cccc(C(=O)N/N=C/c3ccncc3)c2)c1	inconclusive: 0.0586 µM [inhibitor, full curve, poor fit]
COC(=O)C1=C(C)Nc2ccc(C)cc2S1	inconclusive: 18.5 µM [inhibitor, single point]
COc1ccccc1-c1nnn(C/C(N)=N/O)n1	inconclusive: 10.4 µM [inhibitor, partial curve]
CCOc1ccc(C(=O)NC2CCN(C(=O)N3CCCC3)CC2)cc1	inconclusive: 18.5 µM [inhibitor, single point]
O=C(c1cccs1)N1CCN(C(=O)C2CCCO2)CC1 (stereo not given)	active: 4.65 µM
Cc1onc(-c2ccccc2Cl)c1C(=O)N1CCC(Cc2ccccc2)CC1	inconclusive: 18.5 µM [inhibitor, single point]

Look-ups from the results shown.
Potency, CC1CN(C(=O)CCC(=O)NCc2ccccn2)c2ccccc2O1 (stereo not given) is entered as inconclusive: 0.0415 µM [inhibitor, full curve, poor fit]
Potency, O=C(c1cccs1)N1CCN(C(=O)C2CCCO2)CC1 (stereo not given) is entered as active: 4.65 µM

Further records.

SMILES	Potency
O=C(c1ccccc1)N1CCCC(c2ccc(Cl)cc2)=N1	active: 9.28 µM
CCOc1ccc(NC(=O)Cn2nnc(-c3ccccc3NC(=O)CC)n2)cc1	inactive
O=C(O)c1cccnc1Sc1ccc(Cl)cc1	inconclusive: 4.15 µM [inhibitor, single point]
Cc1c(OCc2ccccc2)c(=O)ccn1Cc1ccc(F)cc1	active: 2.33 µM
O=C1c2cccnc2C(O)N1Cc1ccco1 (stereo not given)	inconclusive: 9.28 µM [inhibitor, single point]
COc1ccc(NC(=O)c2cccc(N3C(=O)C4C5C=CC(C6CC56)C4C3=O)c2)cc1 (stereo not given)	inconclusive: 0.0828 µM [inhibitor, full curve, poor fit]
CCOC(=O)c1csc(NC(=O)CCSc2ccccc2)n1	inconclusive: 0.0262 µM [inhibitor, full curve, poor fit]
C=CCNC(=S)N/N=C/c1cn(C)c2ccccc12	inconclusive: 2.33 µM [inhibitor, full curve, poor fit]
Cc1cc[n+](CC(=O)c2cc3ccccc3oc2=O)cc1	inconclusive: 9.28 µM [inhibitor, single point]
CCOc1ccccc1OCCCC(=O)ON=C(N)c1ccccc1	inactive
Cc1cc(=O)oc2cc(NC(=S)NNC(=O)c3c(Cl)cnn3C)ccc12	inconclusive: 13.1 µM [inhibitor, single point]
Cc1nc2c3c(sc2c(=O)[nH]1)NC(=O)CC3c1ccccc1Cl (stereo not given)	inactive
CCCCNC(=S)N(C)/N=C/c1c(C)[nH]c2ccccc12	active: 11.7 µM
CCOC(=O)CNC(=O)c1ccc(SCC)cc1	inactive
COc1ccc2oc(C(=O)OCC(=O)N3CCN(S(=O)(=O)c4ccc(C)cc4)CC3)c(C)c2c1	inactive
CCN1C(=O)[C@H]2[C@@H](c3ccc(-c4ccc(C(C)=O)cc4)cc3)N3CCC[C@@]3(C(=O)OC)[C@H]2C1=O	inconclusive: 14.7 µM [inhibitor, single point]
OCCC1CN(Cc2cccn2-c2ccccn2)CCN1C1CCCCC1 (stereo not given)	inconclusive: 11.7 µM [inhibitor, single point]
CCN(C(=O)CN1C(=O)c2ccc([N+](=O)[O-])cc2C1=O)C1CCCCC1	inconclusive: 14.7 µM [inhibitor, single point]
COc1ccc(CCc2nc(-c3cccs3)no2)cc1	inconclusive: 18.5 µM [inhibitor, single point]
CCN(CC(=O)Nc1ccc(NC(C)=O)cc1)C(=O)/C=C/c1cn(Cc2ccccc2)nc1-c1cccnc1	active: 10.4 µM
CCC1=C(OC(=O)N(CC)CC)N2C(=O)OC(=NCCc3c[nH]c4ccccc34)[C@]2(Cc2ccccc2)[C@H]2C1=CC[C@H]1C(=O)N(C)C(=O)[C@H]12	active: 11.7 µM
CCC(=O)N1CCc2cc(S(=O)(=O)NC(C(=O)NCc3ccccc3)C(C)C)ccc21 (stereo not given)	inconclusive: 10.4 µM [inhibitor, partial curve]
